Measured values as given in patent EP4168403B1 (priority 2020, dated 2021).
At least one read-out could not be matched to a standard name with certainty.

Sequences of proteins named here, by UniProt entry; tags and fusion partners are left off. Residues count along the entry.
UniProt P10636, 623-653 limits assumed: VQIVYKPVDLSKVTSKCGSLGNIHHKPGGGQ

Target: Tau(306-336) peptide (Homo sapiens, UniProt P10636)
Details: inhibitor 50 µM; […] without inhibitor

CCOC(=O)C1=C(C)N(CCC2CCN(Cc3ccccc3)CC2)C(=O)NC1c1coc2c(Cl)cc(Cl)cc2c1=O (racemic) [BIGI-3h, ethyl 1-(2-(1-benzylpiperidin-4-yl)ethyl)-4-(6,8-dichloro-4-oxo-4H-chromen-3-yl)-6-methyl-2-oxo-1,2,3,4-tetrahydropyrimidine-5-carboxylate]
t1/2 (lag phase of Tau(306-336) aggregation): 6.3 h
